According to patent US10058529B2, “Nutraceutical composition for PDE4 inhibition, enhanced dopamine metabolism and long term potentiation” (priority 2013, dated 2018):
At least one compound was matched to its structure with a doubt left.

Assay: Self-reported cognitive effects (motivation, studying, recall) after taking the combination
Type: in vivo, human
Settings: forskolin 1-4 mg daily dosage, found by the inventor

With `C=C[C@@]1(C)CC(=O)[C@]2(O)[C@@]3(C)[C@@H](O)CCC(C)(C)[C@@H]3[C@H](O)[C@H](OC(C)=O)[C@@]2(C)O1` [Forskolin, forskolin] the cognitive benefits was “positive cognitive benefits”.
